From PubChem BioAssay AID1347426 (Functional Genomics Laboratory (NCATS/FGL), 2020) come the findings set out here.

The whole screen tested about 31,000 sequences, of which about 1,400 (4.5%) were called active.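 The calls were made as follows: active = median seed-adjusted z-score above 1 or below -1; inactive = the rest.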 Some of the results follow.

A short description of the assay: Novel Modifiers of Survival Motor Neuron (SMN) Protein: Gene Identification via Genome-wide siRNA Screen.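 Also: luminescence tracks full-length SMN protein made from the SMN2 reporter.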 Conditions: HEK293T SMN2-luciferase reporter, siRNA knockdown, 72 h; actives lie on both sides. In short, it runs like this:
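Genome-wide siRNA screen (10418 genes, 3 siRNAs each, 1 pmol per well) by reverse transfection in HEK293T cells stably carrying an SMN2-luciferase reporter; luminescence after 72 hours, normalized to negative-control siRNA, log10-transformed, MAD-scored.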
For orientation: Reporter assays use an easily measured gene product as a stand-in for the process of interest.
CCUGACCAGUGUCUACAUUTT against ADAMTS13: the median seed-adjusted z-score was inactive: -0.276.

GACUUACCUUCUGAGCAUATT against ZNF792: the median seed-adjusted z-score was inactive: 0.

In the case of GGACUUUCCUGAUAACAGUTT against PLCB2, the median seed-adjusted z-score was inactive: 0.0845.

On to CGACCGUGGUGACAUGAUUTT against LRP3, for which the median seed-adjusted z-score was active: -1.05.

As for GCAAUUACAUGAGCGAGCATT against PLK1, the median seed-adjusted z-score was active: -2.57.

Regarding CACCACCAGUCACAACCUATT against ARID5A, the median seed-adjusted z-score is inactive: 0.0642.

As to CAGAGUACCUGAACUAUGATT against MARS, the median seed-adjusted z-score was inactive: -0.266.

For the sequence GAGUCACACCUGUCGAUUATT against TSNAX, the median seed-adjusted z-score is inactive: 0.514.

On to ACAAGUUGCUGGAAGGUGATT against KLK15, for which the median seed-adjusted z-score is inactive: 0.

On to CAGUAAGACAGAUACGUCATT against NCOA3, for which the median seed-adjusted z-score is inactive: -0.594.

Consider GGCUUUAACCGGAAGUCAATT against ZNF133, for which the median seed-adjusted z-score is inactive: -0.199.

On to AGAUCAUGUAUUACCAACATT against RGS9, for which the median seed-adjusted z-score was inactive: 0.0665.

As for CAUUACUACUUUGCGCAAATT against PUM2, the median seed-adjusted z-score is inactive: -0.129.

In the case of GGCAAUUGAUAAUACUUCATT against MUT, the median seed-adjusted z-score is inactive: 0.333.

Take GAACCACUUACACAAAAUATT against KLK9: the median seed-adjusted z-score was inactive: -0.476.

For the sequence GCACAAGGAUCAUUUUCGATT against MYO6, the median seed-adjusted z-score is inactive: 0.

Regarding GCAUUACGAUUUCAGCUGATT against CPNE3, the median seed-adjusted z-score is inactive: 0.109.

On to GGUCGAGCAGAUGAACUUATT against SDCCAG10, for which the median seed-adjusted z-score was inactive: -0.465.

On to AGUGGGAUAUGGUCCGAAATT against ACTN3, for which the median seed-adjusted z-score was inactive: -0.109.

Consider CAGAUGAUAUUAUUGCGUATT against PHTF1, for which the median seed-adjusted z-score is inactive: 0.0129.

With AGACAGUUAUGCAGCUAUUTT against CLTA, the median seed-adjusted z-score is inactive: 0.243.

UGCUCUCAGUGGAAGAGGATT against TNFRSF8: the median seed-adjusted z-score is inactive: 0.739.

In the case of CAGAUGAAAGGGUAAUAAATT against ZNF480, the median seed-adjusted z-score was inactive: -0.164.

As to CUAUGAUGAAUACACCAAATT against COL10A1, the median seed-adjusted z-score is inactive: -0.0291.

GAUGUAGAGCGAUACUUCATT against ZNF230: the median seed-adjusted z-score was inactive: -0.203.

With GCUGGAUACUUUUAUCGCATT against LOC91431, the median seed-adjusted z-score was inactive: 0.0402.

Take CCAACCUUCUGAAUACGUUTT against GPR126: the median seed-adjusted z-score is inactive: -0.243.

On to CCAUUUUAGCAACUGAACATT against KLRC1, for which the median seed-adjusted z-score was inactive: 0.171.

For the sequence GUAUCAGUGUAAAGGAUCATT against CD3G, the median seed-adjusted z-score was inactive: -0.0274.

Consider GGAAAAUCAUGGAAGUUGATT against IGF2BP2, for which the median seed-adjusted z-score was inactive: 0.281.

Turning to CAGCCUACCUGAAACAGAATT against KLC3, the median seed-adjusted z-score was inactive: -0.156.

CUUUCAUCUCUAAAACUGATT against LHX3: the median seed-adjusted z-score is inactive: 0.622.

GGCUCAUUUUCGCCCUGUATT against CHP2: the median seed-adjusted z-score is inactive: 0.364.

Consider GACAGACUGUGCAUAUGUATT against GPR15, for which the median seed-adjusted z-score was inactive: 0.101.

AGACUGUAUUGCAGGGUGATT against MAFK: the median seed-adjusted z-score is active: 1.73.

Consider GGGAGUCUCAGUUCACUUUTT against PGRMC1, for which the median seed-adjusted z-score was inactive: 0.124.

For the sequence GGGCUUACAUUUUGCAAGATT against TAAR2, the median seed-adjusted z-score was inactive: 0.137.

For GAAUGGAUAUGAUUAAGCATT against NCOA2, the median seed-adjusted z-score is inactive: 0.149.

GCAACGAUGUUGCCUGGAATT against GPX1: the median seed-adjusted z-score was inactive: -0.0529.

With GGAAAAAGCUUCACCCAGATT against ZNF32, the median seed-adjusted z-score is inactive: 0.034.

On to CCUACUCUGUUGUUCGAAATT against C3, for which the median seed-adjusted z-score was inactive: 0.0281.

Take CAGUGGAUAUCUUGACCUATT against LDHA: the median seed-adjusted z-score is inactive: 0.401.

In the case of GGUGCUGGACUAUAUGGAATT against MOGAT2, the median seed-adjusted z-score is inactive: -0.319.

Take CAGUGAAGGUGUACCCUAATT against POMC: the median seed-adjusted z-score was inactive: 0.374.

Turning to CAUCGAGGGUCAUACUAUUTT against POLR2A, the median seed-adjusted z-score was active: -3.81.

For the sequence GGUCAAUUAGAAGAGGUGATT against NDUFA5, the median seed-adjusted z-score was inactive: -0.0429.

With CGAAGAAUCUUCCGAAGAATT against EIF2AK1, the median seed-adjusted z-score is inactive: -0.546.

Turning to CUGAGCGACGUGAACCUUATT against TSKU, the median seed-adjusted z-score was inactive: -0.548.

With CACUUAUUCUGGUCCUUCATT against ELOVL3, the median seed-adjusted z-score is inactive: 0.

As to GAGUGUGACUGGUAAAGUUTT against SMNDC1, the median seed-adjusted z-score was active: -1.54.

As for GGAGUGAUAUAGCAGGUUUTT against ATAD1, the median seed-adjusted z-score is inactive: -0.544.

For GAGGGUUACUGGGACUGUATT against YAF2, the median seed-adjusted z-score was inactive: 0.

For the sequence CCCUCUUCCUUAUCCUGCATT against PITPNM1, the median seed-adjusted z-score is inactive: -0.203.

Regarding CGAGUACCGCAUAAGCAUUTT against PCDHGA2, the median seed-adjusted z-score was inactive: -0.8.

GCAUGCUUCGAAACUCUGATT against NDUFV2: the median seed-adjusted z-score is inactive: -0.794.

Take GAUCAGAGGUGUCACCCUUTT against SLC6A12: the median seed-adjusted z-score was inactive: -0.708.

Take AGCAUUUCCUGGAUGACAATT against CYP2A7: the median seed-adjusted z-score was inactive: 0.342.

Take GAAUGUCGCAGAAAGAAGATT against ATF1: the median seed-adjusted z-score is inactive: -0.112.

Take GCACGGAUGAUCGAACAGATT against ACP6: the median seed-adjusted z-score was inactive: -0.631.

With GGAGAGACAUCGUCAGCUATT against AGXT, the median seed-adjusted z-score is inactive: 0.017.

Consider GGAAGACCUUCUAUAAGAATT against ZNF37A, for which the median seed-adjusted z-score was inactive: -0.0585.

Regarding GCAUGAGUACAGUACCAGATT against NP, the median seed-adjusted z-score was inactive: -0.386.

As for GGUGUACUAUUGACUGGAATT against NAP1L4, the median seed-adjusted z-score is inactive: -0.244.

In the case of GUUCCGAAGCUACUAUGAATT against CAMTA2, the median seed-adjusted z-score was inactive: 0.152.

CCACUAAACUGCGAGAGAATT against CEBPD: the median seed-adjusted z-score is inactive: -0.101.

For the sequence CCAGCAUGGUUACUACGAATT against TRAIP, the median seed-adjusted z-score was inactive: -0.018.

Regarding CCCGGAUAGUGAGAAAAGUTT against APOL4, the median seed-adjusted z-score is inactive: -0.54.

On to GGUCUGUACUGGGAUUCAUTT against PKD2L2, for which the median seed-adjusted z-score was inactive: -0.0723.

Turning to GAACUUAGACCAACUUUAATT against COX5A, the median seed-adjusted z-score is inactive: -0.348.

Take CGAAAUGACUAUUACCUGATT against CDC20: the median seed-adjusted z-score was inactive: 0.191.

Consider CCAACAUCCAAGUAAGCUATT against GRIN3A, for which the median seed-adjusted z-score is inactive: 0.241.

Turning to AGACCAUGGACAACCAUAUTT against GSTM1, the median seed-adjusted z-score was inactive: -0.55.

Turning to GGAUGUUGAUAAAUGGUCUTT against PDE1A, the median seed-adjusted z-score is inactive: 0.

GAAUACUCACUAUUUCCAATT against MMP7: the median seed-adjusted z-score was inactive: 0.0315.

GGAUCACCUUUAUAGCUGUTT against MTMR1: the median seed-adjusted z-score was inactive: -0.0204.

As to GGACUGCUGUAAGACUCUATT against NAT10, the median seed-adjusted z-score is inactive: 0.

Consider GCAGGUUCCAGAAACGAAUTT against PPP1R15B, for which the median seed-adjusted z-score was inactive: -0.407.

GGGUCAUCCGAGAUUCUCATT against DLG5: the median seed-adjusted z-score is inactive: 0.467.

On to CCAUUUGACUUUAUGGAGATT against RRM2, for which the median seed-adjusted z-score was active: -3.84.

As to CACUGAUUUGAAACCCUAUTT against ZNF404, the median seed-adjusted z-score is inactive: 0.574.

With CGUCCAUUCCAGCUGGUAATT against RCADH5, the median seed-adjusted z-score is inactive: -0.158.

In the case of GAAGCAAUGCCUAUACUAUTT against GPR19, the median seed-adjusted z-score is inactive: 0.157.

Regarding CAUUCAACCUCAUUCUGAUTT against CYP11A1, the median seed-adjusted z-score is inactive: 0.0202.

Take CGCUGAUGGUCAAACGCAATT against HSPA9: the median seed-adjusted z-score was inactive: 0.622.

As for CUUUGACUGUCAUCACUGATT against SLC24A2, the median seed-adjusted z-score was inactive: 0.136.

Consider AUAUCAAGGCUGUGCGGAATT against DUS1L, for which the median seed-adjusted z-score was inactive: 0.0698.

As for AGACGGUGGUGUGCAGGAATT against RHOT2, the median seed-adjusted z-score is inactive: 0.263.

On to CCCUCAAUCCAGCACAAAATT against LILRA4, for which the median seed-adjusted z-score was inactive: 0.109.

CCUGAUGUAUUGGACAUUUTT against HPSE: the median seed-adjusted z-score was inactive: 0.153.

For the sequence AGGUCUUUCCCAACGAGGATT against UBE2S, the median seed-adjusted z-score is inactive: 0.348.

Consider CGUGAAAUGUUUGGAUAUATT against NDUFC2, for which the median seed-adjusted z-score was inactive: -0.0481.

For the sequence CAAGAACUGUGCGAUCUUATT against ZAN, the median seed-adjusted z-score is inactive: 0.736.

For UGUACGUCCUGGGAUGAUATT against TNFRSF10C, the median seed-adjusted z-score was inactive: 0.

For the sequence CAAGCUCUGAUAUACCGAATT against HIVEP1, the median seed-adjusted z-score is inactive: 0.532.

Turning to GGCAUUACCGUGUAUAACATT against CHST10, the median seed-adjusted z-score is inactive: 0.115.

On to GUUUGACCUUAGCUAGAAATT against SHOC2, for which the median seed-adjusted z-score is inactive: -0.403.

As for CCCUCGAUGUGACGCAGAATT against GP9, the median seed-adjusted z-score was inactive: -0.88.

Take CUCUUAGAAGCAAAACGUATT against SYTL5: the median seed-adjusted z-score is inactive: 0.192.

On to GCACCAUGGGCUAAUCAGATT against RPE, for which the median seed-adjusted z-score was inactive: 0.616.

As to GUAUCUGUGAUAUUGAAAATT against LPAR1, the median seed-adjusted z-score was inactive: 0.514.

As to CCGACAUAUCUAUACCUGATT against SCGB2A1, the median seed-adjusted z-score was inactive: 0.

Turning to GGUUUGAGCUAGUCAUGGATT against CSAD, the median seed-adjusted z-score is inactive: -0.0681.

On to GUUGGAUGAUUGACUCUGATT against ERBB2, for which the median seed-adjusted z-score was inactive: 0.158.

Consider GCAAAUACGUGUAGACCUATT against EXOSC9, for which the median seed-adjusted z-score is inactive: -0.00796.

UGUUAAGCUUCAUCAGUAUTT against MRGPRX1: the median seed-adjusted z-score is inactive: -0.188.

As for GGAUAUCAAUCGAGUACAATT against PIK3R3, the median seed-adjusted z-score was active: -1.88.

GAACUGCACGUGUACAACATT against HCFC1: the median seed-adjusted z-score is active: 1.47.

As for CCAUCGUUCUGGGAAUUCUTT against CD6, the median seed-adjusted z-score is inactive: -0.33.
